Assay results reported in patent US20260201032A1 (UNIVERSITAT DE BARCELONA, published 2026).
No constants are given. Whether binding was seen depends on the method and setting. Some results given as binding are weak or reduced against the parent protein; the word gives no strength.

Chains of the proteins cited; added tags and fusions are not shown. Lines headed by an entry give the natural chain unless they say otherwise; changes in a name come on top.
UniProt Q01965: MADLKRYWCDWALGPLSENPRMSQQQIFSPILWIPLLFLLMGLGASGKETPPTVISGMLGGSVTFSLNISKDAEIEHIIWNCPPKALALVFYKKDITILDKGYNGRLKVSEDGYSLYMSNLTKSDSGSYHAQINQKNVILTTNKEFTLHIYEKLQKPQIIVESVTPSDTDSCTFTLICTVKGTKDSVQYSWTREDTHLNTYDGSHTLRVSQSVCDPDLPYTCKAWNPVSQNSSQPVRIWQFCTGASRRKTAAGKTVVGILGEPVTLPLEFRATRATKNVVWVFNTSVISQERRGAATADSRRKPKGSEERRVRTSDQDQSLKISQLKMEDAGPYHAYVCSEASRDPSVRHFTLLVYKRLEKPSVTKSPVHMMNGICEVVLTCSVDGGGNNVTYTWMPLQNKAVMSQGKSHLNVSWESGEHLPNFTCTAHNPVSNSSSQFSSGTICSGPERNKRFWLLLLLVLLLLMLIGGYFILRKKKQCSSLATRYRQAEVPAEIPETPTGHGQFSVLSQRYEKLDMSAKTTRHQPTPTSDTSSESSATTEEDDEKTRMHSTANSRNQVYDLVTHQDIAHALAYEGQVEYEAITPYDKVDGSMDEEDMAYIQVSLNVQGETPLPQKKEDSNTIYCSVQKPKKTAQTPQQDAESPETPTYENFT

Molecular target: T1, CD229 hDI/DII mDIII/DIV (human; mouse) (UniProt Q9HBG7+Q01965)
T1 sequence (looked up): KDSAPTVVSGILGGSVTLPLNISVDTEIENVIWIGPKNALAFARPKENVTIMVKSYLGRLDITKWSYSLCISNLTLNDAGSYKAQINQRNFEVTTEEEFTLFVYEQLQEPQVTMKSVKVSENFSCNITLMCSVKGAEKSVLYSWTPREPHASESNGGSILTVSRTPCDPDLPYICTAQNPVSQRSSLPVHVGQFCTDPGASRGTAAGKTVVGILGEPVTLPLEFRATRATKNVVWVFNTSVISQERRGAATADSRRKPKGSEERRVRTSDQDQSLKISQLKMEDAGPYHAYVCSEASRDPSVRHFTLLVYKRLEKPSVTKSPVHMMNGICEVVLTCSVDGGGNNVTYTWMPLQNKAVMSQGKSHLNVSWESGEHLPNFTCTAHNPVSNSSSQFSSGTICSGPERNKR
Assay: flow cytometry on transiently transfected COS cells

binding: binds
B1: HLy9.1.84 (antibody, V domains shown)
VH: QMQLQESGPELVKPGASVKISCKASGYTFTHYYINWVQQRPGQGLEWIGWIFPESGSTYYSEKFKAKATLTVDKSSSTAYMLLSSLTSEDSAVYFCARGTGFFDYWGQGTTLTVSS
VL: QIVLTQSPAIMSASPGEKVTVTCSASSSVSYMFWYQQKPGFSPRLLIYDTSNLASGVPVRFSGSGSGTSYSLTISRMEAEDAATYYCQQWSSYPPTFGGGTKLEIK
notes: also called HLy91.184
